Test results reported in PubChem BioAssay AID248 (DTP/NCI, 2004).
The list does not hold the whole screen: it is rich in T/C values a quarter to a half above the control, in often repeated tests (any T/C) and in doses without a T/C. Other doses and runs of a compound stand elsewhere. T/C gives the treated animals as a percentage of the vehicle group. Some entries give survivors of the animals treated and no T/C: the source holds a T/C of zero for them, seemingly a mark for toxic or unscored doses. Some survivor counts are full or nearly so, which does not show that the dose was tolerated: survival well below the control is almost never listed, so the zero probably covers shortened survival too. Counts of survivors are from the toxicity check (mostly the fifth day) where no day follows; animals may have died later. Schedules are NCI's codes, taken here to give the interval after Q, in days (D) or hours (H), and the number of doses after X.

System: L1210 leukemia ip in BDF1 mice, survival T/C
Test: NCI In Vivo Anticancer Drug Screen. Data for tumor model L1210 Leukemia (intraperitoneal) in B6D2F1 (BDF1) mice
Settings: T/C endpoint: mean survival time, higher T/C = longer survival
[1] = dose: 200.0 mg/kg/injection, schedule: Q01DX009 (ip), vehicle: Klucel (hydroxypropylcellulose) (HPC)
[2] = dose: 400.0 mg/kg/injection, schedule: Q01DX009 (ip), vehicle: Klucel (hydroxypropylcellulose) (HPC)

Q: What does the source list for N#CCN1CCCN(CC#N)C1?
A: survivor count [1]: 1 of 6; survivor count [2]: 0 of 6; survivor count (dose: 400.0 mg/kg/injection, schedule: Q04DX003 (ip), vehicle: Klucel (hydroxypropylcellulose) (HPC)): 0 of 6

Q: How did the survivor count (dose: 100.0 mg/kg/injection, schedule: Q01DX009 (ip), vehicle: Klucel (hydroxypropylcellulose) (HPC)) turn out when Cc1cc(C)c(-c2c(C)cc(C)c(N)c2C)c(C)c1N was run?
A: The survivor count was 3 of 6.

Q: And the survivor count [1]?
A: The survivor count was 1 of 6.

Q: And the survivor count [2]?
A: Its survivor count is 0 of 6.

Q: For Clc1cc(C(Cl)(Cl)Cl)c(Cl)cc1C(Cl)(Cl)Cl, which survivor count (dose: 100.0 mg/kg/injection, schedule: Q04DX003 (ip), vehicle: Klucel (hydroxypropylcellulose) (HPC)) is on record?
A: The survivor count was 5 of 6.

Q: Which survivor count (dose: 400.0 mg/kg/injection, schedule: Q04DX003 (ip), vehicle: saline) does the source give for C[N+]1(C2CCC3CCC2C3O)CCCCC1 (stereo not given) here?
A: Its survivor count is 0 of 6.

Q: For O=C(NNCc1ccccc1)c1ccccn1, which survivor count [1] is on record?
A: Its survivor count is 0 of 6.

Q: CC(N=c1nc(N)ccn1C1OC(CO)C(O)C1O)C(=O)O (stereo not given) was tested. Which survivor count (dose: 100.0 mg/kg/injection, schedule: Q01DX005 (ip), vehicle: saline) did it give?
A: The survivor count was 2 of 6.

Q: Which results are given for O=C(/C(=C\c1ccccc1)CBr)c1ccc(Br)cc1?
A: survivor count (dose: 25.0 mg/kg/injection, schedule: Q01DX009 (ip), vehicle: saline): 6 of 6; survivor count (dose: 50.0 mg/kg/injection, schedule: Q01DX009 (ip), vehicle: saline): 3 of 6; survivor count (dose: 100.0 mg/kg/injection, schedule: Q04DX003 (ip), vehicle: saline with Tween-80): 3 of 6; survivor count (dose: 200.0 mg/kg/injection, schedule: Q04DX003 (ip), vehicle: saline with Tween-80): 1 of 6; survivor count (dose: 400.0 mg/kg/injection, schedule: Q04DX003 (ip), vehicle: saline with Tween-80): 1 of 6
